Assay results: article PMC5698697
No constants are given. Whether binding was seen depends on the method and setting. Binding seen in cells or lysates may run through a third protein. Some entries that bind do so weakly or less than the wild type. Tags and fused reporters may be left off the sequences shown.

Amino acid sequences for entries named in this document (tags omitted). Residues count along the entry.
UniProt Q9QUN7, residues 25-784: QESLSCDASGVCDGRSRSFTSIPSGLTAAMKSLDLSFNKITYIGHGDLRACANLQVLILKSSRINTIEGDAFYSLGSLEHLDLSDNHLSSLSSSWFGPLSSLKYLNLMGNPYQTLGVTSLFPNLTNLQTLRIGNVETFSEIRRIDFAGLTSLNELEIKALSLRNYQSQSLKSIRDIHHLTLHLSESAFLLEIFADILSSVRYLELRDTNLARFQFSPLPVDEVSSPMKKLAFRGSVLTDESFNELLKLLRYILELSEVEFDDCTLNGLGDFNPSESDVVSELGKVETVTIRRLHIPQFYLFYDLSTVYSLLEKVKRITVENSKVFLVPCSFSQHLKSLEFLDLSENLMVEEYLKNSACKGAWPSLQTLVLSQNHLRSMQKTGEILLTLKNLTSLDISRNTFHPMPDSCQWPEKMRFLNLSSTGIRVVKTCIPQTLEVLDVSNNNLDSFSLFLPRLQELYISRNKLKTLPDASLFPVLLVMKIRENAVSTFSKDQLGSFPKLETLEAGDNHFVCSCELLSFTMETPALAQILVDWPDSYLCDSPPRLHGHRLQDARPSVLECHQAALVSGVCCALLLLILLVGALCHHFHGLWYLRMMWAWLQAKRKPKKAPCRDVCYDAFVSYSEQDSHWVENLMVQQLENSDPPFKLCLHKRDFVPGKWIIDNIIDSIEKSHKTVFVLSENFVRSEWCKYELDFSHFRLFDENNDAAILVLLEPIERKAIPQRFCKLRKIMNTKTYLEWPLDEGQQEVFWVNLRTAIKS

How the values were obtained:
[1] = biological target: Toll-like receptor 2 (TLR2), endogenous in RAW 264.7 mouse macrophages (mouse (endogenous in RAW 264.7)) (UniProt Q9QUN7); experiment: co-IP; RAW 264.7 cells treated with Rv2029c (10 μg/ml) for 8 h, lysed with RIPA buffer, precleared; immunoprecipitated with isotype IgG, anti-TLR2, anti-TLR12 or anti-Rv2029c overnight at 4°C; blots probed with anti-TLR2, anti-TLR12 or anti-His; only the binder purified
[2] = biological target: T1, Toll-like receptor 12 (TLR12), endogenous in RAW 264.7 mouse macrophages (mouse (endogenous in RAW 264.7)) (UniProt Q6QNU9); experiment: as above
T1 sequence: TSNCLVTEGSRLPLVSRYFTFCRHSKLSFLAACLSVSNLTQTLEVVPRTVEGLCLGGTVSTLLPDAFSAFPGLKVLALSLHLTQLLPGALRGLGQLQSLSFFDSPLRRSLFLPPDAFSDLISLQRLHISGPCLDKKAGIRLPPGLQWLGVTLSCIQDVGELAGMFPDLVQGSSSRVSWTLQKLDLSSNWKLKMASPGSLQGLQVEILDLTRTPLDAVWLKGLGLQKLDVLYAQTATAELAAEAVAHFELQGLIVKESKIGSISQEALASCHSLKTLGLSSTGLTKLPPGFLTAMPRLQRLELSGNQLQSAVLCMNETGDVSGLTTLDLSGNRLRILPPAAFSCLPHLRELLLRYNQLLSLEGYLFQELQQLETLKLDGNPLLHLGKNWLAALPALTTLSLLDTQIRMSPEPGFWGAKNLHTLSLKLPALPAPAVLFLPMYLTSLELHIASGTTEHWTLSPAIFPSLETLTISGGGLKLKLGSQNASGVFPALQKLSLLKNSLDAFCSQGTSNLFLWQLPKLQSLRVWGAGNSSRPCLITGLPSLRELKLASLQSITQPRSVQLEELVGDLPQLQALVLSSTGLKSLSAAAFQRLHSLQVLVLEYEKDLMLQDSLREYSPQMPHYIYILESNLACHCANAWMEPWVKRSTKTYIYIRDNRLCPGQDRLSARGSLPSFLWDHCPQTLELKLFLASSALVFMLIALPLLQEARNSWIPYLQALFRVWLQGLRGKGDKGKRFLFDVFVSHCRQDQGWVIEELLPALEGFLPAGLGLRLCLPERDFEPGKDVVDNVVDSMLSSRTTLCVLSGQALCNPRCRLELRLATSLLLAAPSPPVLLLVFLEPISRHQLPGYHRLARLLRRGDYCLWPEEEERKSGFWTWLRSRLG

B1: Mycobacterium tuberculosis latency-associated antigen Rv2029c, recombinant, His-tagged (protein, UniProt P9WID3 1-339)
chain: MTEPAAWDEGKPRIITLTMNPALDITTSVDVVRPTEKMRCGAPRYDPGGGGINVARIVHVLGGCSTALFPAGGSTGSLLMALLGDAGVPFRVIPIAASTRESFTVNESRTAKQYRFVLPGPSLTVAEQEQCLDELRGAAASAAFVVASGSLPPGVAADYYQRVADICRRSSTPLILDTSGGGLQHISSGVFLLKASVRELRECVGSELLTEPEQLAAAHELIDRGRAEVVVVSLGSQGALLATRHASHRFSSIPMTAVSGVGAGDAMVAAITVGLSRGWSLIKSVRLGNAAGAAMLLTPGTAACNRDDVERFFELAAEPTEVGQDQYVWHPIVNPEASP
Which results are given for B1?
binding [1]: binds; binding [2]: no binding (tested: 10 μg/ml)
